Measured data: PubChem BioAssay AID1224826 (NIAID, 2016)
Assay: 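Genes that change LPS-induced Tnf promoter activity in mouse macrophages when knocked down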 (primary screen). Cells: RAW264.7 G9 macrophages from mouse bearing reporters for p65 (GFP) and the Tnf promoter (mCherry). Reagents: siRNA pool against mouse genes, 100 nM. Time to read-out: 16 h of LPS stimulation, after 2 days of siRNA transfection. Challenge: bacterial lipopolysaccharide (Salmonella minnesota R595), 10 ng/ml. Measured: 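Imaged Tnf reporter mCherry in nuclei, minus background, normalised per plate to the median and expressed as robust z-scores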. Reading the numbers: Tnf reporter robust z-score: higher = stronger Tnf promoter reporter signal after LPS. Hit rule: 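a well counts as active at a score of -1.3 or below (Tlr4 knock-down control median) or above 3 (raised signal); controls and wells holding fewer than 50 cells are excluded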. Meaning of the calls: active = Tnf reporter clearly lowered or raised; inactive = no clear change in Tnf reporter.
In all, the deposit lists about 17,000 reagents; this is an unselected part. About 1,110 of them (6.6%) count as active. 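Active means lowered or raised reporter signal; replicate intensities are raw and not normalised per plate.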 Further read-outs or replicates are left out here. No sequences are given here.

Fnta (farnesyltransferase, CAAX box, alpha) → Tnf reporter robust z-score = 0.19; fewer than 50 cells in well = enough cells in well; activity call = inactive
Farp2 (FERM, RhoGEF and pleckstrin domain protein 2) → Tnf reporter robust z-score = 1.56; fewer than 50 cells in well = enough cells in well; activity call = inactive
Ctdsp2 (CTD small phosphatase 2) → Tnf reporter robust z-score = -0.29; fewer than 50 cells in well = enough cells in well; activity call = inactive
Ccdc59 (coiled-coil domain containing 59) → Tnf reporter robust z-score = 0.64; fewer than 50 cells in well = enough cells in well; activity call = inactive
Cryba2 (crystallin, beta A2) → Tnf reporter robust z-score = 0.87; fewer than 50 cells in well = enough cells in well; activity call = inactive
Spp2 (secreted phosphoprotein 2) → Tnf reporter robust z-score = 6.54; fewer than 50 cells in well = enough cells in well; activity call = active
Mb21d2 (Mab-21 domain containing 2) → Tnf reporter robust z-score = -0.7; fewer than 50 cells in well = enough cells in well; activity call = inactive
Gnao1 (guanine nucleotide binding protein, alpha O) → Tnf reporter robust z-score = -0.34; fewer than 50 cells in well = enough cells in well; activity call = inactive

Called active, among the entries above:
Spp2 (secreted phosphoprotein 2) → Tnf reporter robust z-score = 6.54; fewer than 50 cells in well = enough cells in well; activity call = active

Further records:
Or10x4 (olfactory receptor family 10 subfamily X member 4) → fewer than 50 cells in well = fewer than 50 cells per well; well left out of calls; activity call = inactive
Pramel39-ps (PRAME like 39, pseudogene) → fewer than 50 cells in well = fewer than 50 cells per well; well left out of calls; activity call = inactive
Fdx1 (ferredoxin 1) → Tnf reporter robust z-score = -0.67; fewer than 50 cells in well = enough cells in well; activity call = inactive
Dazap2 (DAZ associated protein 2) → Tnf reporter robust z-score = -0.39; fewer than 50 cells in well = enough cells in well; activity call = inactive
Add1 (adducin 1) → Tnf reporter robust z-score = 1.42; fewer than 50 cells in well = enough cells in well; activity call = inactive
Myd88 (myeloid differentiation primary response gene 88) → Tnf reporter robust z-score = -2.01; fewer than 50 cells in well = enough cells in well; activity call = active
Riok3 (RIO kinase 3) → Tnf reporter robust z-score = 0.25; fewer than 50 cells in well = enough cells in well; activity call = inactive
Pcgf2 (polycomb group ring finger 2) → Tnf reporter robust z-score = -0.41; fewer than 50 cells in well = enough cells in well; activity call = inactive
Chchd2l2 → fewer than 50 cells in well = fewer than 50 cells per well; well left out of calls; activity call = inactive
C8a (complement component 8, alpha polypeptide) → Tnf reporter robust z-score = 0.09; fewer than 50 cells in well = enough cells in well; activity call = inactive
Chrnb1 (cholinergic receptor nicotinic beta 1 subunit) → Tnf reporter robust z-score = 0.13; fewer than 50 cells in well = enough cells in well; activity call = inactive
Tab2 (TGF-beta activated kinase 1/MAP3K7 binding protein 2) → Tnf reporter robust z-score = -1.29; fewer than 50 cells in well = enough cells in well; activity call = inactive
Nphp4 (nephronophthisis 4 (juvenile) homolog (human)) → Tnf reporter robust z-score = 0.27; fewer than 50 cells in well = enough cells in well; activity call = inactive
